Test results from the supplement of paper PMC7661543.
The effect of the compound repeats well; differences between the knockouts mostly do not.

Legend:
BT-20 = assay: relative cell number vs DMSO control (72 h) (% of DMSO); higher = less growth inhibition (more cells)
Experimental: (§1)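 QMAP-Seq: a pool of 5 breast cancer cell lines (ZR-75-1, SKBR3, HCC-38, MDA-MB-231, BT-20), each carrying 12 doxycycline-inducible Cas9 sgRNA perturbations (11 knockouts plus non-targeting sgNT), was treated with compounds for 72 h at four 10-fold doses (10 nM-10 uM or 1 nM-1 uM range). Barcodes were amplified and sequenced, and cell number was interpolated from 293T spike-in standard curves. The result is expressed as % of the median of DMSO wells. Two biological replicates.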

HCC-38 = assay: as above
Experimental: as §1

CC(C)OC(=O)C1=CN(C(=O)c2ccc(F)c(F)c2)CC(C)(C)c2c1[nH]c1ccccc21
relative cell number
Conditions	BT-20	HCC-38
sgRNA knockout: sgATF3, 10 nM	93.8	95.5
sgRNA knockout: sgATF3, 100 nM	82.8	87.2
sgRNA knockout: sgATF3, 1000 nM	95.1	97.9
sgRNA knockout: sgATF3, 10000 nM	86.8	82.7
sgRNA knockout: sgATF4, 10 nM	87.4	89.4
sgRNA knockout: sgATF4, 100 nM	100	92.5
sgRNA knockout: sgATF4, 1000 nM	97.4	95.1
sgRNA knockout: sgATF4, 10000 nM	106	82.6
sgRNA knockout: sgATF6, 10 nM	93.5	96.8
sgRNA knockout: sgATF6, 100 nM	77	97.2
sgRNA knockout: sgATF6, 1000 nM	113	97.9
sgRNA knockout: sgATF6, 10000 nM	101	101
sgRNA knockout: sgATG7, 10 nM	92.34	94.5
sgRNA knockout: sgATG7, 100 nM	94.5	93.5
sgRNA knockout: sgATG7, 1000 nM	105	97.3
sgRNA knockout: sgATG7, 10000 nM	95.7	92.22
sgRNA knockout: sgERN1, 10 nM	98.2	90.9
sgRNA knockout: sgERN1, 100 nM	82.2	89.6
sgRNA knockout: sgERN1, 1000 nM	103.5	91.4
sgRNA knockout: sgERN1, 10000 nM	110	90.7
sgRNA knockout: sgHSF1, 10 nM	90.462	102
sgRNA knockout: sgHSF1, 100 nM	91.58	93.7
sgRNA knockout: sgHSF1, 1000 nM	87.5	92.32
sgRNA knockout: sgHSF1, 10000 nM	98.6	105
sgRNA knockout: sgHSF2, 10 nM	98	85.7
sgRNA knockout: sgHSF2, 100 nM	96	92.17
sgRNA knockout: sgHSF2, 1000 nM	91.6	93.1
sgRNA knockout: sgHSF2, 10000 nM	96.3	97.2
sgRNA knockout: sgKEAP1, 10 nM	91.4	100
sgRNA knockout: sgKEAP1, 100 nM	91.3	93.3
sgRNA knockout: sgKEAP1, 1000 nM	99.1	88.8
sgRNA knockout: sgKEAP1, 10000 nM	93.9	102
sgRNA knockout: sgNFE2L2, 10 nM	95.4	90.8
sgRNA knockout: sgNFE2L2, 100 nM	85.6	96.6
sgRNA knockout: sgNFE2L2, 1000 nM	102	86.8
sgRNA knockout: sgNFE2L2, 10000 nM	97.9	87.9
sgRNA knockout: sgSLC35F2, 10 nM	92.6	99.9
sgRNA knockout: sgSLC35F2, 100 nM	83.9	88.3
sgRNA knockout: sgSLC35F2, 1000 nM	95.2	91.4
sgRNA knockout: sgSLC35F2, 10000 nM	112	101
sgRNA knockout: sgXBP1, 10 nM	91.8	90.4
sgRNA knockout: sgXBP1, 100 nM	111	92
sgRNA knockout: sgXBP1, 1000 nM	108	99.3
sgRNA knockout: sgXBP1, 10000 nM	108	94.3

O=C1NC(=O)/C(=C/c2ccc3nccc(-c4ccncc4)c3c2)S1
relative cell number
Conditions	BT-20	HCC-38
sgRNA knockout: sgATF3, 10 nM	83.7	95.13
sgRNA knockout: sgATF3, 100 nM	99	88.8
sgRNA knockout: sgATF3, 1000 nM	69.6	79.1
sgRNA knockout: sgATF3, 10000 nM	50.9	43.5
sgRNA knockout: sgATF4, 10 nM	84.5	88
sgRNA knockout: sgATF4, 100 nM	103	86.3
sgRNA knockout: sgATF4, 1000 nM	77.2	76.6
sgRNA knockout: sgATF4, 10000 nM	42.8	42.8
sgRNA knockout: sgATF6, 10 nM	92.7	96.8
sgRNA knockout: sgATF6, 100 nM	95.5	96.58
sgRNA knockout: sgATF6, 1000 nM	68.9	90.8
sgRNA knockout: sgATF6, 10000 nM	43.2	50.9
sgRNA knockout: sgATG7, 10 nM	103	91.7
sgRNA knockout: sgATG7, 100 nM	88.4	85
sgRNA knockout: sgATG7, 1000 nM	76.1	75.7
sgRNA knockout: sgATG7, 10000 nM	40.4	47.69
sgRNA knockout: sgERN1, 10 nM	100	96.4
sgRNA knockout: sgERN1, 100 nM	87.84	91.7
sgRNA knockout: sgERN1, 1000 nM	71.3	81.2
sgRNA knockout: sgERN1, 10000 nM	34.2	46.2
sgRNA knockout: sgHSF1, 10 nM	87.2	94.6
sgRNA knockout: sgHSF1, 100 nM	90.3	85.7
sgRNA knockout: sgHSF1, 1000 nM	63.7	80.6
sgRNA knockout: sgHSF1, 10000 nM	38.9	46.5
sgRNA knockout: sgHSF2, 10 nM	77.3	96.4
sgRNA knockout: sgHSF2, 100 nM	89.55	97.6
sgRNA knockout: sgHSF2, 1000 nM	69.8	78.5
sgRNA knockout: sgHSF2, 10000 nM	43.6	49.7
sgRNA knockout: sgKEAP1, 10 nM	93.4	103
sgRNA knockout: sgKEAP1, 100 nM	76.8	96.1
sgRNA knockout: sgKEAP1, 1000 nM	70.3	79.9
sgRNA knockout: sgKEAP1, 10000 nM	38.6	57.7
sgRNA knockout: sgNFE2L2, 10 nM	92.8	90
sgRNA knockout: sgNFE2L2, 100 nM	94	85.1
sgRNA knockout: sgNFE2L2, 1000 nM	65	78.8
sgRNA knockout: sgNFE2L2, 10000 nM	45.9	40.3
sgRNA knockout: sgSLC35F2, 10 nM	91.89	87.7
sgRNA knockout: sgSLC35F2, 100 nM	80	95.5
sgRNA knockout: sgSLC35F2, 1000 nM	67.7	79.4
sgRNA knockout: sgSLC35F2, 10000 nM	44.5	42.9
sgRNA knockout: sgXBP1, 10 nM	93.6	89.6
sgRNA knockout: sgXBP1, 100 nM	81.8	86.1
sgRNA knockout: sgXBP1, 1000 nM	80.3	80.2
sgRNA knockout: sgXBP1, 10000 nM	47.59	44.6
